Test results: article doi:10.1101/2025.10.03.680249

How the values were obtained:
[1] = target: HAK5 (high-affinity K+ uptake protein), split-ubiquitin fusion (Arabidopsis); assay: two-hybrid
[2] = target: HAK5, split-nanoluciferase fusion in yeast (Arabidopsis); assay: split reporter
[3] = target: YC:HAK5, BiFC fusion expressed in Xenopus oocytes (Arabidopsis); assay: split reporter
[4] = target: HAK5, BiFC fusion expressed in Nicotiana benthamiana (Arabidopsis); assay: split reporter

binding [1]: binds
B1: NPF6.2/NRT1.4 (nitrate transporter), split-ubiquitin fusion (protein, UniProt Q9SZY4 1-577)
chain: MESKGSWTVADAVDYKGRPADKSKTGGWITAALILGIEVVERLSTMGIAVNLVTYLMETMHLPSSTSANIVTDFMGTSFLLCLLGGFLADSFLGRFKTIGIFSTIQALGTGALAVATKLPELRPPTCHHGEACIPATAFQMTILYVSLYLIALGTGGLKSSISGFGSDQFDDKDPKEKAHMAFFFNRFFFFISMGTLLAVTVLVYMQDEVGRSWAYGICTVSMAIAIVIFLCGTKRYRYKKSQGSPVVQIFQVIAAAFRKRKMELPQSIVYLYEDNPEGIRIEHTDQFHLLDKAAIVAEGDFEQTLDGVAIPNPWKLSSVTKVEEVKMMVRLLPIWATTIIFWTTYAQMITFSVEQASTMRRNIGSFKIPAGSLTVFFVAAILITLAVYDRAIMPFWKKWKGKPGFSSLQRIAIGLVLSTAGMAAAALVEQKRLSVAKSSSQKTLPISVFLLVPQFFLVGAGEAFIYTGQLDFFITQSPKGMKTMSTGLFLTTLSLGFFVSSFLVSIVKRVTSTSTDVGWLADNINHGRLDYFYWLLVILSGINFVVYIICALWFKPTKGKDSVEKENGKGFSVEDC

binding [2]: binds
B2: NPF6.2 wild type, split-nanoluciferase fusion in yeast (protein, UniProt Q9SZY4 1-577)
chain: MESKGSWTVADAVDYKGRPADKSKTGGWITAALILGIEVVERLSTMGIAVNLVTYLMETMHLPSSTSANIVTDFMGTSFLLCLLGGFLADSFLGRFKTIGIFSTIQALGTGALAVATKLPELRPPTCHHGEACIPATAFQMTILYVSLYLIALGTGGLKSSISGFGSDQFDDKDPKEKAHMAFFFNRFFFFISMGTLLAVTVLVYMQDEVGRSWAYGICTVSMAIAIVIFLCGTKRYRYKKSQGSPVVQIFQVIAAAFRKRKMELPQSIVYLYEDNPEGIRIEHTDQFHLLDKAAIVAEGDFEQTLDGVAIPNPWKLSSVTKVEEVKMMVRLLPIWATTIIFWTTYAQMITFSVEQASTMRRNIGSFKIPAGSLTVFFVAAILITLAVYDRAIMPFWKKWKGKPGFSSLQRIAIGLVLSTAGMAAAALVEQKRLSVAKSSSQKTLPISVFLLVPQFFLVGAGEAFIYTGQLDFFITQSPKGMKTMSTGLFLTTLSLGFFVSSFLVSIVKRVTSTSTDVGWLADNINHGRLDYFYWLLVILSGINFVVYIICALWFKPTKGKDSVEKENGKGFSVEDC

binding [3]: binds
B3: YN:NPF6.2^V210M, BiFC fusion expressed in Xenopus oocytes (protein, UniProt Q9SZY4 1-577)
chain: MESKGSWTVADAVDYKGRPADKSKTGGWITAALILGIEVVERLSTMGIAVNLVTYLMETMHLPSSTSANIVTDFMGTSFLLCLLGGFLADSFLGRFKTIGIFSTIQALGTGALAVATKLPELRPPTCHHGEACIPATAFQMTILYVSLYLIALGTGGLKSSISGFGSDQFDDKDPKEKAHMAFFFNRFFFFISMGTLLAVTVLVYMQDEMGRSWAYGICTVSMAIAIVIFLCGTKRYRYKKSQGSPVVQIFQVIAAAFRKRKMELPQSIVYLYEDNPEGIRIEHTDQFHLLDKAAIVAEGDFEQTLDGVAIPNPWKLSSVTKVEEVKMMVRLLPIWATTIIFWTTYAQMITFSVEQASTMRRNIGSFKIPAGSLTVFFVAAILITLAVYDRAIMPFWKKWKGKPGFSSLQRIAIGLVLSTAGMAAAALVEQKRLSVAKSSSQKTLPISVFLLVPQFFLVGAGEAFIYTGQLDFFITQSPKGMKTMSTGLFLTTLSLGFFVSSFLVSIVKRVTSTSTDVGWLADNINHGRLDYFYWLLVILSGINFVVYIICALWFKPTKGKDSVEKENGKGFSVEDC

binding [2]: binds
B4: NPF6.2^V210M, split-nanoluciferase fusion in yeast (protein, UniProt Q9SZY4 1-577)
chain: MESKGSWTVADAVDYKGRPADKSKTGGWITAALILGIEVVERLSTMGIAVNLVTYLMETMHLPSSTSANIVTDFMGTSFLLCLLGGFLADSFLGRFKTIGIFSTIQALGTGALAVATKLPELRPPTCHHGEACIPATAFQMTILYVSLYLIALGTGGLKSSISGFGSDQFDDKDPKEKAHMAFFFNRFFFFISMGTLLAVTVLVYMQDEMGRSWAYGICTVSMAIAIVIFLCGTKRYRYKKSQGSPVVQIFQVIAAAFRKRKMELPQSIVYLYEDNPEGIRIEHTDQFHLLDKAAIVAEGDFEQTLDGVAIPNPWKLSSVTKVEEVKMMVRLLPIWATTIIFWTTYAQMITFSVEQASTMRRNIGSFKIPAGSLTVFFVAAILITLAVYDRAIMPFWKKWKGKPGFSSLQRIAIGLVLSTAGMAAAALVEQKRLSVAKSSSQKTLPISVFLLVPQFFLVGAGEAFIYTGQLDFFITQSPKGMKTMSTGLFLTTLSLGFFVSSFLVSIVKRVTSTSTDVGWLADNINHGRLDYFYWLLVILSGINFVVYIICALWFKPTKGKDSVEKENGKGFSVEDC

binding [3]: binds
B5: YN:NPF6.2, BiFC fusion expressed in Xenopus oocytes (protein, UniProt Q9SZY4 1-577)
chain: MESKGSWTVADAVDYKGRPADKSKTGGWITAALILGIEVVERLSTMGIAVNLVTYLMETMHLPSSTSANIVTDFMGTSFLLCLLGGFLADSFLGRFKTIGIFSTIQALGTGALAVATKLPELRPPTCHHGEACIPATAFQMTILYVSLYLIALGTGGLKSSISGFGSDQFDDKDPKEKAHMAFFFNRFFFFISMGTLLAVTVLVYMQDEVGRSWAYGICTVSMAIAIVIFLCGTKRYRYKKSQGSPVVQIFQVIAAAFRKRKMELPQSIVYLYEDNPEGIRIEHTDQFHLLDKAAIVAEGDFEQTLDGVAIPNPWKLSSVTKVEEVKMMVRLLPIWATTIIFWTTYAQMITFSVEQASTMRRNIGSFKIPAGSLTVFFVAAILITLAVYDRAIMPFWKKWKGKPGFSSLQRIAIGLVLSTAGMAAAALVEQKRLSVAKSSSQKTLPISVFLLVPQFFLVGAGEAFIYTGQLDFFITQSPKGMKTMSTGLFLTTLSLGFFVSSFLVSIVKRVTSTSTDVGWLADNINHGRLDYFYWLLVILSGINFVVYIICALWFKPTKGKDSVEKENGKGFSVEDC

binding [4]: binds
B6: NPF6.2, BiFC fusion expressed in Nicotiana benthamiana (protein, UniProt Q9SZY4 1-577)
chain: MESKGSWTVADAVDYKGRPADKSKTGGWITAALILGIEVVERLSTMGIAVNLVTYLMETMHLPSSTSANIVTDFMGTSFLLCLLGGFLADSFLGRFKTIGIFSTIQALGTGALAVATKLPELRPPTCHHGEACIPATAFQMTILYVSLYLIALGTGGLKSSISGFGSDQFDDKDPKEKAHMAFFFNRFFFFISMGTLLAVTVLVYMQDEVGRSWAYGICTVSMAIAIVIFLCGTKRYRYKKSQGSPVVQIFQVIAAAFRKRKMELPQSIVYLYEDNPEGIRIEHTDQFHLLDKAAIVAEGDFEQTLDGVAIPNPWKLSSVTKVEEVKMMVRLLPIWATTIIFWTTYAQMITFSVEQASTMRRNIGSFKIPAGSLTVFFVAAILITLAVYDRAIMPFWKKWKGKPGFSSLQRIAIGLVLSTAGMAAAALVEQKRLSVAKSSSQKTLPISVFLLVPQFFLVGAGEAFIYTGQLDFFITQSPKGMKTMSTGLFLTTLSLGFFVSSFLVSIVKRVTSTSTDVGWLADNINHGRLDYFYWLLVILSGINFVVYIICALWFKPTKGKDSVEKENGKGFSVEDC

binding [1]: binds
B7: NPF6.3/NRT1.1 (nitrate transceptor), split-ubiquitin fusion (protein, UniProt Q05085 1-590)
chain: MSLPETKSDDILLDAWDFQGRPADRSKTGGWASAAMILCIEAVERLTTLGIGVNLVTYLTGTMHLGNATAANTVTNFLGTSFMLCLLGGFIADTFLGRYLTIAIFAAIQATGVSILTLSTIIPGLRPPRCNPTTSSHCEQASGIQLTVLYLALYLTALGTGGVKASVSGFGSDQFDETEPKERSKMTYFFNRFFFCINVGSLLAVTVLVYVQDDVGRKWGYGICAFAIVLALSVFLAGTNRYRFKKLIGSPMTQVAAVIVAAWRNRKLELPADPSYLYDVDDIIAAEGSMKGKQKLPHTEQFRSLDKAAIRDQEAGVTSNVFNKWTLSTLTDVEEVKQIVRMLPIWATCILFWTVHAQLTTLSVAQSETLDRSIGSFEIPPASMAVFYVGGLLLTTAVYDRVAIRLCKKLFNYPHGLRPLQRIGLGLFFGSMAMAVAALVELKRLRTAHAHGPTVKTLPLGFYLLIPQYLIVGIGEALIYTGQLDFFLRECPKGMKGMSTGLLLSTLALGFFFSSVLVTIVEKFTGKAHPWIADDLNKGRLYNFYWLVAVLVALNFLIFLVFSKWYVYKEKRLAEVGIELDDEPSIPMGH

binding [2]: binds
B8: NPF6.3/NRT1.1, split-nanoluciferase fusion in yeast (protein, UniProt Q05085 1-590)
chain: MSLPETKSDDILLDAWDFQGRPADRSKTGGWASAAMILCIEAVERLTTLGIGVNLVTYLTGTMHLGNATAANTVTNFLGTSFMLCLLGGFIADTFLGRYLTIAIFAAIQATGVSILTLSTIIPGLRPPRCNPTTSSHCEQASGIQLTVLYLALYLTALGTGGVKASVSGFGSDQFDETEPKERSKMTYFFNRFFFCINVGSLLAVTVLVYVQDDVGRKWGYGICAFAIVLALSVFLAGTNRYRFKKLIGSPMTQVAAVIVAAWRNRKLELPADPSYLYDVDDIIAAEGSMKGKQKLPHTEQFRSLDKAAIRDQEAGVTSNVFNKWTLSTLTDVEEVKQIVRMLPIWATCILFWTVHAQLTTLSVAQSETLDRSIGSFEIPPASMAVFYVGGLLLTTAVYDRVAIRLCKKLFNYPHGLRPLQRIGLGLFFGSMAMAVAALVELKRLRTAHAHGPTVKTLPLGFYLLIPQYLIVGIGEALIYTGQLDFFLRECPKGMKGMSTGLLLSTLALGFFFSSVLVTIVEKFTGKAHPWIADDLNKGRLYNFYWLVAVLVALNFLIFLVFSKWYVYKEKRLAEVGIELDDEPSIPMGH

No constants are given. Whether binding was seen depends on the method and setting. Binding can be weak; no strength is given. Where a sequence is shown, tags or fusion partners need not be part of it. For some assays here: Binding seen in cells or lysates may run through a third protein. One block for each binder: values may come before it.
